The values that follow are results of earlier work, collected in patent US7179808B2 (Janssen Pharmaceutica N.V., priority 2002, dated 2007).

Molecules are shown by their SMILES.

For the data set, the system named is mice with potassium peroxochromate arthritis. The conditions noted are these: cited from earlier work.

Turning to `CN[C@@H]1C[C@H]2O[C@@](C)([C@@H]1OC)n1c3ccccc3c3c4c(c5c6ccccc6n2c5c31)C(=O)NC4` [staurosporine], the “inhibition of the arthritis” value (100 nmol) is given as 85%. In addition, the inhibited the arthritis (daily doses of 30 nmol/kg) was 50%.
